Source: publication PMC3498349
No constants are given. Whether binding was seen depends on the method and setting. In cells and extracts the contact can be indirect. Some results given as binding are weak or reduced against the parent protein; the word gives no strength.

The chains behind the UniProt entries cited, without tags or fusion partners.
UniProt O15169: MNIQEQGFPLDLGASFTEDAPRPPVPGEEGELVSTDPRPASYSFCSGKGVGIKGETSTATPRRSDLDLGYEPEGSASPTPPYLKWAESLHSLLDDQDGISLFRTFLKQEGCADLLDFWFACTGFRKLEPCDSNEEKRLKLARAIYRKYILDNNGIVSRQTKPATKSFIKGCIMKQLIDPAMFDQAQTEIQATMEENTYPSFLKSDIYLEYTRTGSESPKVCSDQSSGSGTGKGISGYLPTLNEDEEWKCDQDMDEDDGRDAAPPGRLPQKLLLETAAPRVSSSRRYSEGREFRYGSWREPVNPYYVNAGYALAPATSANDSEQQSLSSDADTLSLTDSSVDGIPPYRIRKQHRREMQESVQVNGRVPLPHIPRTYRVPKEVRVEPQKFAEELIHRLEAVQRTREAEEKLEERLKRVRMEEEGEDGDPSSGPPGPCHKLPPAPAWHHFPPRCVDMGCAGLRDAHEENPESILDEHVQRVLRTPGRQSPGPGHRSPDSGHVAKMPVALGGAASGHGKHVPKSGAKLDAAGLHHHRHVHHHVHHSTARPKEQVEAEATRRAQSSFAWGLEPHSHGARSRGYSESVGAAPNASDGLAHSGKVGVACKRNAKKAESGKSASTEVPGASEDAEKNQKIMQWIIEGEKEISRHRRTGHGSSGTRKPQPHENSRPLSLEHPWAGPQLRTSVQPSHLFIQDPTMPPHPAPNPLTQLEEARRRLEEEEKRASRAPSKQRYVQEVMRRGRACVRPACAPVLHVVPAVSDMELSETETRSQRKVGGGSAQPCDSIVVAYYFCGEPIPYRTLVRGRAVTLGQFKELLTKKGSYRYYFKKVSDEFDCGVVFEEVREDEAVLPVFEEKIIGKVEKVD
UniProt P53350: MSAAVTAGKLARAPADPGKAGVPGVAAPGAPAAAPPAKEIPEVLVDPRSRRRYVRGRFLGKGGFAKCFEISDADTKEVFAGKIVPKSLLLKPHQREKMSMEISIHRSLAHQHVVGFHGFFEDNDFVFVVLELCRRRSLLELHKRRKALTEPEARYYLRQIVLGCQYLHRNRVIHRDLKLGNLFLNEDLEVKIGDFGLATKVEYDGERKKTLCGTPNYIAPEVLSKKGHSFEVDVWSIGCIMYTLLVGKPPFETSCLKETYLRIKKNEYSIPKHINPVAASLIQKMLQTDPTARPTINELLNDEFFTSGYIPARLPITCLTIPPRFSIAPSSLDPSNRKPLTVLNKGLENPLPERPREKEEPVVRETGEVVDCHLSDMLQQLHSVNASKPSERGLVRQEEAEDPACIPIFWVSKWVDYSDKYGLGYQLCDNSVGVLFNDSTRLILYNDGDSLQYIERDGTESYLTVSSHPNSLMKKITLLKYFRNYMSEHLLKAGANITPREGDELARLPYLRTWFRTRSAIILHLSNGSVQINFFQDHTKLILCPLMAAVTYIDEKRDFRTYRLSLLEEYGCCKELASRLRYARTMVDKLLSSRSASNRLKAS

Molecular target: Axin (endogenous, HeLa cells) (human (endogenous in HeLa)) (UniProt O15169)
Test: co-IP; HeLa cell lysates immunoprecipitated with anti-Axin, mouse anti-PLK1 or control IgGs, then immunoblotting; endogenous proteins

binding: binds
Substance: PLK1 (endogenous, HeLa cells) (from UniProt P53350 1-603) (enzyme)
